Data from the supplement of paper PMC7666118.
Some of the results follow.

Protein sequences, listed by entry. Tags and fused reporters are not part of them. Lines headed by an entry give the natural chain unless they say otherwise; changes in a name come on top.
UniProt Q13740: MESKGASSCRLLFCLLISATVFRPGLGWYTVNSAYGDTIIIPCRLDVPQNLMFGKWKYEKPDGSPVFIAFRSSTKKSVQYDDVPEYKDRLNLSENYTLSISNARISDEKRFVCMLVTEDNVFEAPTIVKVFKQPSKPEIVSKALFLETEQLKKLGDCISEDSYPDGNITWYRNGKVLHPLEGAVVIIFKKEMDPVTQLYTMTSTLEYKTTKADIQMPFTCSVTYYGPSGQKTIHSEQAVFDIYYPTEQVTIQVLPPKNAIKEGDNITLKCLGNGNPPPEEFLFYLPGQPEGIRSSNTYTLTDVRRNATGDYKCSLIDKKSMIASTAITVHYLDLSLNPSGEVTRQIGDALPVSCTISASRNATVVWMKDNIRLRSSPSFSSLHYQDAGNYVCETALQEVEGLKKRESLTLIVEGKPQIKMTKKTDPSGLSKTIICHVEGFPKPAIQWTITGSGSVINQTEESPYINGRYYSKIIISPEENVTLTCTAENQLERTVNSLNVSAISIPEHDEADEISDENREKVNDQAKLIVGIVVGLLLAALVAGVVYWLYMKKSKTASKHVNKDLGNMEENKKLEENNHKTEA
UniProt Q03154: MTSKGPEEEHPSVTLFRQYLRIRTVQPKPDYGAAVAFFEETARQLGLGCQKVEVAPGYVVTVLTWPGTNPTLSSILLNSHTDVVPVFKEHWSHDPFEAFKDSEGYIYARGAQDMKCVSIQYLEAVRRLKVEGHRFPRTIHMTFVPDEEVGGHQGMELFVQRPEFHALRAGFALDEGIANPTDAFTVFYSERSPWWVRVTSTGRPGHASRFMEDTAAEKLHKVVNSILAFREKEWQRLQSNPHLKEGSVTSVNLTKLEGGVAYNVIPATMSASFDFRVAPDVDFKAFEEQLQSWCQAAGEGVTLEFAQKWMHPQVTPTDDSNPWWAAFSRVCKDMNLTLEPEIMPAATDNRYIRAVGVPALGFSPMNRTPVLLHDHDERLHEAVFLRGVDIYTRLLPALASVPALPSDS
UniProt Q9UIJ7: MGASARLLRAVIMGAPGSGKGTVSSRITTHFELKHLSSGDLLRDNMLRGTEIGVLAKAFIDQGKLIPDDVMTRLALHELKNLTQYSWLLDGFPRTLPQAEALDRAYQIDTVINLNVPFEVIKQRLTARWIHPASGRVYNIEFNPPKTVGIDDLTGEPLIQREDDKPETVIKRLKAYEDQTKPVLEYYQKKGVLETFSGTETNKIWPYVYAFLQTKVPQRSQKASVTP
UniProt Q9HCJ1: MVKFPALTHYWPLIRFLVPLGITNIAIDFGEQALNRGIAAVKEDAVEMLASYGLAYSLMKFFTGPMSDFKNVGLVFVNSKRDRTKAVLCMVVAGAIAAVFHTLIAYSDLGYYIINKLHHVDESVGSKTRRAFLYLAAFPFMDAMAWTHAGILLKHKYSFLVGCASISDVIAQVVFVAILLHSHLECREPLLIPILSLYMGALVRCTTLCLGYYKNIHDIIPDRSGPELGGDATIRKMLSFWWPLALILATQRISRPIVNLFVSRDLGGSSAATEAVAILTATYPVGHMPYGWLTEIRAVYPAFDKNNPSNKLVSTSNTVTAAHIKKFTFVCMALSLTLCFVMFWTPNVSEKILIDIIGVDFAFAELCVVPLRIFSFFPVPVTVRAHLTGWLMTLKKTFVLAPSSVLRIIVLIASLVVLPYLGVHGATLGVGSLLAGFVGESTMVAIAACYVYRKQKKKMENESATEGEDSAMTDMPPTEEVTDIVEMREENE
UniProt Q9BR61: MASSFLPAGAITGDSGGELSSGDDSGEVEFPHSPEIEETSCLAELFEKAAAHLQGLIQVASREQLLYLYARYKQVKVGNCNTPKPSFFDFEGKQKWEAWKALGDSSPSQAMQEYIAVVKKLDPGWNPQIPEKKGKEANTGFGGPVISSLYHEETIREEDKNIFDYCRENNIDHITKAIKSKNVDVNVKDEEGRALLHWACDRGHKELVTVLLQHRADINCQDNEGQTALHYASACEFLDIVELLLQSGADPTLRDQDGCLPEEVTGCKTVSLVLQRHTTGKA
UniProt P07741: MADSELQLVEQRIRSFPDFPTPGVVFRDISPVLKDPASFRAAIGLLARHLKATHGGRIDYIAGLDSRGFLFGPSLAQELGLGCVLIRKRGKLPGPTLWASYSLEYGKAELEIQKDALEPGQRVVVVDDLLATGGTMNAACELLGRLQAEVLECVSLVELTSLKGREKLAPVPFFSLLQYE
UniProt Q96PC3: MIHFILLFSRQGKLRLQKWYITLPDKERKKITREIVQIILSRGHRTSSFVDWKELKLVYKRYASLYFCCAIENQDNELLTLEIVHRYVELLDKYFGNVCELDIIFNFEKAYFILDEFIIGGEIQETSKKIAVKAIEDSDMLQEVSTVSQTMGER
UniProt Q10567: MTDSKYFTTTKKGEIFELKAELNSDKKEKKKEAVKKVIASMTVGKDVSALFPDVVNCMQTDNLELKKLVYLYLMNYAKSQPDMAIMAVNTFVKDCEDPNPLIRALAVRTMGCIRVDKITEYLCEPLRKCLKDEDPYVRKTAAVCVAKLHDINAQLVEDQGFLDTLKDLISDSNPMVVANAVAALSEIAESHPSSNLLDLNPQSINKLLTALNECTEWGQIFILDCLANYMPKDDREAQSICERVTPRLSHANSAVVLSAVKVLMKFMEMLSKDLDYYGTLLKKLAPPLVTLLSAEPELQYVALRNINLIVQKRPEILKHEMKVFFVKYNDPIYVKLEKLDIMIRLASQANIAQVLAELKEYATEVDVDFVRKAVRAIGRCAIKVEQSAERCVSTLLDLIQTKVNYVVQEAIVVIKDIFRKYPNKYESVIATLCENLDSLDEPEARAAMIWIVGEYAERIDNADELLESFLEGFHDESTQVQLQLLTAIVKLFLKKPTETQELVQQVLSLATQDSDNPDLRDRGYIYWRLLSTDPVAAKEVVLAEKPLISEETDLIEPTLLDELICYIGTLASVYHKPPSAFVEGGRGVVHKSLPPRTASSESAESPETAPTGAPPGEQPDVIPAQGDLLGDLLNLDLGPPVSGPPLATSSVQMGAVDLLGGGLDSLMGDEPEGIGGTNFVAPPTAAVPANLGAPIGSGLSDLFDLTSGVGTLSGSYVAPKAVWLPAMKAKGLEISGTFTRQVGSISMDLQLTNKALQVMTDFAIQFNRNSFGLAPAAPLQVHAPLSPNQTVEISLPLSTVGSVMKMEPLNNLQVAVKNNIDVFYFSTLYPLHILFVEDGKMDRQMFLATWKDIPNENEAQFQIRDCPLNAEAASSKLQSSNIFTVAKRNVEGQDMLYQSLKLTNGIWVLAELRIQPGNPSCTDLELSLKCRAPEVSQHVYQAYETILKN
UniProt P24752: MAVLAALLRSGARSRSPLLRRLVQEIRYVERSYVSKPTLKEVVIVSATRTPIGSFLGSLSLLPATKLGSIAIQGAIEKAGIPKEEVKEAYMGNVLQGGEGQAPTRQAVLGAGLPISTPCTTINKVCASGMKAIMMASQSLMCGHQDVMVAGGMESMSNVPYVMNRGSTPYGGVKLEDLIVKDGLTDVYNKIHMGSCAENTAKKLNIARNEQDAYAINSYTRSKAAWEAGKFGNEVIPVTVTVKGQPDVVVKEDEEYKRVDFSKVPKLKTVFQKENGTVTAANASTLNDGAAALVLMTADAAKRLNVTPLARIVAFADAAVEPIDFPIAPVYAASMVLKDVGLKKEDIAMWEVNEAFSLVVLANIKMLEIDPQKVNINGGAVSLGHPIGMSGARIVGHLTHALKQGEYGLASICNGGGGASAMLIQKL
UniProt Q9Y4W6: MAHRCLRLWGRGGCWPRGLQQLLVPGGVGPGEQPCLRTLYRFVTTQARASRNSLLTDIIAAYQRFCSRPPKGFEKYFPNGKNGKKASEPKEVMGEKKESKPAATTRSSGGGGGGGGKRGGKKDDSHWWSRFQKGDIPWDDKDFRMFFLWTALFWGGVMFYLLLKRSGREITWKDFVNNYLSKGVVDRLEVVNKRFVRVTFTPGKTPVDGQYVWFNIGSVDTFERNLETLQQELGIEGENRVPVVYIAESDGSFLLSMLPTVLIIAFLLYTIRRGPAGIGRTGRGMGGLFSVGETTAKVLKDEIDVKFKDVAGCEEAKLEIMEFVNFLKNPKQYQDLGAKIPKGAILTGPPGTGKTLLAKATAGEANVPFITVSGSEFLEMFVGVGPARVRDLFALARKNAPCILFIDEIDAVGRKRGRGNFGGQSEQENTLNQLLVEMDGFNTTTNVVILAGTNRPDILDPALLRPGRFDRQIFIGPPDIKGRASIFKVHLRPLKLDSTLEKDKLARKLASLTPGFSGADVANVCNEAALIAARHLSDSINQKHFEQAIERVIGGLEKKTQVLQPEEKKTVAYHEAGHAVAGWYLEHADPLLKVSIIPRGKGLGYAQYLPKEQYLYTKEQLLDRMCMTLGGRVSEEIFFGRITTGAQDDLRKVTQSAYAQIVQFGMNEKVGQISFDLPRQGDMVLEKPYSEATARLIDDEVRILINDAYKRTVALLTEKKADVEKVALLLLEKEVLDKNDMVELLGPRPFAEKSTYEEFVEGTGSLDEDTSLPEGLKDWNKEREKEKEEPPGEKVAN
UniProt O15254: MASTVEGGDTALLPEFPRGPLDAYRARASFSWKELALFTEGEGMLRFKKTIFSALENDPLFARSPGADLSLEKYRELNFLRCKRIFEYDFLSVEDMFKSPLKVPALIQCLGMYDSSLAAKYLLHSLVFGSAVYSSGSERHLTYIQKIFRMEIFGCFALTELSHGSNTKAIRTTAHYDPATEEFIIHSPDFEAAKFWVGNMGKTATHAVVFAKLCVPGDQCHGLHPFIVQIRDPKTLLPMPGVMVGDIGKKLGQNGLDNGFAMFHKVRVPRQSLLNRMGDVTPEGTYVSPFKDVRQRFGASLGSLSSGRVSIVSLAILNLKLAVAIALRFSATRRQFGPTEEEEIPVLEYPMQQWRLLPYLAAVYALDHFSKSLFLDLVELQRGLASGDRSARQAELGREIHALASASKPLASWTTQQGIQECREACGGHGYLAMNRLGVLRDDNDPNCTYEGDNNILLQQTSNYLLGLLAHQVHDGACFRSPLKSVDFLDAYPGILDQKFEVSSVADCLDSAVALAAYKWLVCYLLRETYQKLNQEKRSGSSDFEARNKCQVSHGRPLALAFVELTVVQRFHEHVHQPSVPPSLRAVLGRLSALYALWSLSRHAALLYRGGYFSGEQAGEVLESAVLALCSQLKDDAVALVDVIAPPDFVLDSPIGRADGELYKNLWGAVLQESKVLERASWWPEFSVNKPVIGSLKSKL
UniProt P78536: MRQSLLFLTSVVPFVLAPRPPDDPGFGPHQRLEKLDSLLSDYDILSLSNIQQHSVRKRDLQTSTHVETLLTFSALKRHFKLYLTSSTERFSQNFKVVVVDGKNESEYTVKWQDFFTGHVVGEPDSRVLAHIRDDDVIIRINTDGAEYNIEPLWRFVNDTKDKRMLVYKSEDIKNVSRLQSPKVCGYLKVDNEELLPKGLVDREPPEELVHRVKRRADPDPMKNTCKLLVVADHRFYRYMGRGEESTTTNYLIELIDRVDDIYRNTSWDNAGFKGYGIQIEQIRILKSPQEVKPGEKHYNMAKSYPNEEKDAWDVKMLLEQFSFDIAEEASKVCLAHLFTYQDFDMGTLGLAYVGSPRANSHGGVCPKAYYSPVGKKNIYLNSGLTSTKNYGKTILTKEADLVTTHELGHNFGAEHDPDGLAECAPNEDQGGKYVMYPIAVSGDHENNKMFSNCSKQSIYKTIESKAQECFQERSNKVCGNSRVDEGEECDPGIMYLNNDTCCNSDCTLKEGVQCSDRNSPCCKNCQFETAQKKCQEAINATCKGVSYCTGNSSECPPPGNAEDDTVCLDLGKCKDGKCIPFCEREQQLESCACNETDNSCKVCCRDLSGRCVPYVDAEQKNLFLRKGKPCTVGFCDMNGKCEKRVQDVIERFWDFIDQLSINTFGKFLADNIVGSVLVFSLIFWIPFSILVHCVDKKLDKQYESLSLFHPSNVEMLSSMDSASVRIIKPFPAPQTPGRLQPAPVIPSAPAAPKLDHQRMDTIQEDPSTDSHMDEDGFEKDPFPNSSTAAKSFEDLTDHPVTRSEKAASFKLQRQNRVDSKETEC
UniProt Q8N6T3: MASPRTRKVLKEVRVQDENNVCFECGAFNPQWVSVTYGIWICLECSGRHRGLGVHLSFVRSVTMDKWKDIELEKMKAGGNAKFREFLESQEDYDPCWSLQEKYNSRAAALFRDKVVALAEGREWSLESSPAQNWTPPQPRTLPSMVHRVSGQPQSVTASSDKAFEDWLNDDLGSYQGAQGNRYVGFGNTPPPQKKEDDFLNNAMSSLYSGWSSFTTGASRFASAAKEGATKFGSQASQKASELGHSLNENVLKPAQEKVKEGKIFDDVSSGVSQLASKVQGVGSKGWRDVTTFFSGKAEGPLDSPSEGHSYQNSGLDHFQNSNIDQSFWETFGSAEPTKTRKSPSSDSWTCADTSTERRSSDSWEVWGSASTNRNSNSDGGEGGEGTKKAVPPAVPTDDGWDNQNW

Compound: COc1ccc(Cn2ccc3ccc(C(=O)NO)cc32)cc1
Assay: dose-dependent thermal stabilisation call (2D-TPP, DLPTP, 10% FDR) (binary (1 = stabilised)); higher = stabilised by the compound
Details: system: HL-60 intact cells; concentration range 0.04-10 µM

Target	dose-dependent thermal stabilisation call
ALCAM (UniProt Q13740)	inactive: 0
ARFGAP2 (UniProt Q8N6H7)	inactive: 0
ACY1 (UniProt Q03154)	inactive: 0
ANAPC1 (UniProt Q9H1A4)	inactive: 0
AK3 (UniProt Q9UIJ7)	inactive: 0
ADD2 (UniProt P35612)	inactive: 0
ANKH (UniProt Q9HCJ1)	inactive: 0
ANKS1A (UniProt Q92625)	inactive: 0
ACBD6 (UniProt Q9BR61)	inactive: 0
APRT (UniProt P07741)	inactive: 0
ARHGAP30 (UniProt Q7Z6I6)	inactive: 0
AP1S3 (UniProt Q96PC3)	inactive: 0
ANKRD27 (UniProt Q96NW4)	inactive: 0
AP1B1 (UniProt Q10567)	inactive: 0
APOO (UniProt Q9BUR5)	inactive: 0
AKAP13 (UniProt Q12802)	inactive: 0
ACAT1 (UniProt P24752)	inactive: 0
AIP (UniProt O00170)	inactive: 0
ACCN2 (UniProt P78348)	inactive: 0
ACTR3B (UniProt Q9P1U1)	inactive: 0
AFG3L2 (UniProt Q9Y4W6)	inactive: 0
ANKRD50 (UniProt Q9ULJ7)	inactive: 0
ANKZF1 (UniProt Q9H8Y5)	inactive: 0
ACOX3 (UniProt O15254)	active: 1
ADAM17 (UniProt P78536)	inactive: 0
ARFGAP1 (UniProt Q8N6T3)	inactive: 0
ALDH1L2 (UniProt Q3SY69)	inactive: 0

2 successive records out of the list so far:
Target	dose-dependent thermal stabilisation call
ADAM17 (UniProt P78536)	inactive: 0
ARFGAP1 (UniProt Q8N6T3)	inactive: 0
